Source: the supplement of paper PMC10849652
Some of the results follow.

Chains of the proteins cited; added tags and fusions are not shown. Lines headed by an entry give the natural chain unless they say otherwise; changes in a name come on top.
UniProt Q1MSJ5: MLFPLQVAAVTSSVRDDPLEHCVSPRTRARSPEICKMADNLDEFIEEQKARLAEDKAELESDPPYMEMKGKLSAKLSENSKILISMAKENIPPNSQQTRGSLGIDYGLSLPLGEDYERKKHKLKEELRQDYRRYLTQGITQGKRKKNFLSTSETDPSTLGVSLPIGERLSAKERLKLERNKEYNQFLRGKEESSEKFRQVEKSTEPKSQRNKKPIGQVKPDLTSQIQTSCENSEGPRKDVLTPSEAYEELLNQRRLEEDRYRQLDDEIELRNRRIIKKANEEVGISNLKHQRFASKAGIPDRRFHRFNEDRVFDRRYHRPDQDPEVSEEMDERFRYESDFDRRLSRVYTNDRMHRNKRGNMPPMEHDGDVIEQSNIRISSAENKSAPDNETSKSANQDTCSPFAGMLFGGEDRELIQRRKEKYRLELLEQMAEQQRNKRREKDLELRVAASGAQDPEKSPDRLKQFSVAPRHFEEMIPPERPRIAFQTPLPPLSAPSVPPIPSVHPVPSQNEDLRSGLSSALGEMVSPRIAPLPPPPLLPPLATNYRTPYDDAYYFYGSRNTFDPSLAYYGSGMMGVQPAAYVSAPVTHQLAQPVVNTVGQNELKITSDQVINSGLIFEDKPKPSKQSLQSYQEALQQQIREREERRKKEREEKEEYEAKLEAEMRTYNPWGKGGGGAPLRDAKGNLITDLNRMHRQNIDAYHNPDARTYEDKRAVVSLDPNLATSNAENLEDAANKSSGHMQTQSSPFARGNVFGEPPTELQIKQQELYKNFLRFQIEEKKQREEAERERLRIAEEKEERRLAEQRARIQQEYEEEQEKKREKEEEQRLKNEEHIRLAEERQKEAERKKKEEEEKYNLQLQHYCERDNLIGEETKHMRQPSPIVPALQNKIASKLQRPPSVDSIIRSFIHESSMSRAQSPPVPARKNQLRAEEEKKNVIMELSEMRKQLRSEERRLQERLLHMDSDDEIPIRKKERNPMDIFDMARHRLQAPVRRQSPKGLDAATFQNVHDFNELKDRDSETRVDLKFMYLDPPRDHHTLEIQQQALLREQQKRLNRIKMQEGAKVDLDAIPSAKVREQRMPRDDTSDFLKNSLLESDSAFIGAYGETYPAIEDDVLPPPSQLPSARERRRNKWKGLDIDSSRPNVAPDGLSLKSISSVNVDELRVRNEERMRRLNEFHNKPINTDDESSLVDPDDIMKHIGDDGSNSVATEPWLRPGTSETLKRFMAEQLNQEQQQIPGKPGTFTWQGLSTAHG
UniProt P0DMU9: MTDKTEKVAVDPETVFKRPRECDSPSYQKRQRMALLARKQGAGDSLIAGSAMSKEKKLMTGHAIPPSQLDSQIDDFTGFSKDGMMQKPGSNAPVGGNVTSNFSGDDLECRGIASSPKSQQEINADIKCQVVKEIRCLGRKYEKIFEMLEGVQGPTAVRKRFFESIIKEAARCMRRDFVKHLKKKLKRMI
UniProt Q9P013: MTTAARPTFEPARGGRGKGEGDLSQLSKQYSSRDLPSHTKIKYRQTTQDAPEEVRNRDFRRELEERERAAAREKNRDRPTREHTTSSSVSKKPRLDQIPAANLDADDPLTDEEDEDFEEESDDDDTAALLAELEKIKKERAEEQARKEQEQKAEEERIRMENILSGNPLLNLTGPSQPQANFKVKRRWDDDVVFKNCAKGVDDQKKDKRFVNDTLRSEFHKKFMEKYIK
UniProt Q6PI48: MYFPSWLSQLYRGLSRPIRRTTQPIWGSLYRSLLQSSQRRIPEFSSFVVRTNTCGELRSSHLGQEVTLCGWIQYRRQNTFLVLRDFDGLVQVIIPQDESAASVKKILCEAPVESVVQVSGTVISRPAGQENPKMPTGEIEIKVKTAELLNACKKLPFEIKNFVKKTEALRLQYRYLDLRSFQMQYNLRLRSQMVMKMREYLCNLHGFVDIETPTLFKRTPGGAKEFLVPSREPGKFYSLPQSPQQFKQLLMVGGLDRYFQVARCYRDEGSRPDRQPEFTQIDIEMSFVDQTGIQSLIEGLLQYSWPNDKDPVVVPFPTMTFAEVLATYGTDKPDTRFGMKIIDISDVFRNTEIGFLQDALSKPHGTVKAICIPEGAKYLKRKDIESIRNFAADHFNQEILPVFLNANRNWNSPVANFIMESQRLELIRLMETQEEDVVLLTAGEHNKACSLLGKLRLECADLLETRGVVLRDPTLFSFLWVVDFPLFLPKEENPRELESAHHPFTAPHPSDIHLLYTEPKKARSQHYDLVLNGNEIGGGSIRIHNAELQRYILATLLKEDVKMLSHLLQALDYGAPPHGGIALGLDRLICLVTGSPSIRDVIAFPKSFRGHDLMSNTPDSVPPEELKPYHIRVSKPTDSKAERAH
UniProt P61962: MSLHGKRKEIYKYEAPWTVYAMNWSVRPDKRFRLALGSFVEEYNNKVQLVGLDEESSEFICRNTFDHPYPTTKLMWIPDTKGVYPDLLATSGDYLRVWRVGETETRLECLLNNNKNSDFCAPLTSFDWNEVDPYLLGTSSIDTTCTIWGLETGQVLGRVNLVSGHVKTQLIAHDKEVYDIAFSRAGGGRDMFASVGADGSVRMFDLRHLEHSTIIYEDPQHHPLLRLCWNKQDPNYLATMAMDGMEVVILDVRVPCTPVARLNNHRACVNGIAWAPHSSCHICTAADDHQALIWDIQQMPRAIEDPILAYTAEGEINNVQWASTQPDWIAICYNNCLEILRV
UniProt Q14247: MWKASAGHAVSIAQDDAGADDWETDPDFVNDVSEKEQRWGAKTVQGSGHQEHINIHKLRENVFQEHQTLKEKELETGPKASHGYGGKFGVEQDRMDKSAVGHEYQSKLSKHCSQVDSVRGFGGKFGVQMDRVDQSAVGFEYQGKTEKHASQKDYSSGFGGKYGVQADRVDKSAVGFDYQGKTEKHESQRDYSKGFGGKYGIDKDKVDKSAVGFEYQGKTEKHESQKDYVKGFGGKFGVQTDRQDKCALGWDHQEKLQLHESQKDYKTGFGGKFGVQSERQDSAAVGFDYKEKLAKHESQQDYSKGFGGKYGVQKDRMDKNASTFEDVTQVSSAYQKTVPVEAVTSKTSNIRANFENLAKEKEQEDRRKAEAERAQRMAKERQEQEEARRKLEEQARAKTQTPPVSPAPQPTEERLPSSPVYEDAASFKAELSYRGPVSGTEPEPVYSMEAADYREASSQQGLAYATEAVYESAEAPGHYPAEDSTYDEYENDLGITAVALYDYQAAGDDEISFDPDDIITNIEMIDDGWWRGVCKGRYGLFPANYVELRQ
UniProt Q69YN2: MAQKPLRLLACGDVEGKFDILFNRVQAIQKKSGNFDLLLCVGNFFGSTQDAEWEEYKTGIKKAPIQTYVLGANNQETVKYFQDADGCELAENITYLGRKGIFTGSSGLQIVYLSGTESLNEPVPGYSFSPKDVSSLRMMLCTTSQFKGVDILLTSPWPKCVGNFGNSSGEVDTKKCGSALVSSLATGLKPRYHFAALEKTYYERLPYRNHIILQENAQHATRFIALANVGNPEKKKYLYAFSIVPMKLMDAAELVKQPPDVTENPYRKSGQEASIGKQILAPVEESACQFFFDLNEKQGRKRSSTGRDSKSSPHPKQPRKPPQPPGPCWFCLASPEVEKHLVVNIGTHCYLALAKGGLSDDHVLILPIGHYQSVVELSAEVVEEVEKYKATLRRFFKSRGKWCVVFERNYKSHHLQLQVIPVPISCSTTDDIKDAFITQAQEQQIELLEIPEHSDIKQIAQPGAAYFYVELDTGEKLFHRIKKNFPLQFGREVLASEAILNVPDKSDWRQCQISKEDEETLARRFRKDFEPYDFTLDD
UniProt Q13561, whole entry, looked up: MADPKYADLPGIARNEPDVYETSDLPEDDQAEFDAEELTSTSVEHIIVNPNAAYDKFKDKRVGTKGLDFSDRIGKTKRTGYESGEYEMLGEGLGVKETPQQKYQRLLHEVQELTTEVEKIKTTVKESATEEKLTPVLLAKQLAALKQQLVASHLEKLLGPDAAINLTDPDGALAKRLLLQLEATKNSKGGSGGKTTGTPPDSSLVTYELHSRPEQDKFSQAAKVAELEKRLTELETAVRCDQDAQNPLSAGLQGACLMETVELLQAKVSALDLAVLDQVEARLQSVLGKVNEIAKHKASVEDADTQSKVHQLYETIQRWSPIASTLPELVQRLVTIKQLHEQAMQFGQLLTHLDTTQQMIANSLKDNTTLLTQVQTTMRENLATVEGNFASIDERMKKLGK
UniProt Q9BQA9: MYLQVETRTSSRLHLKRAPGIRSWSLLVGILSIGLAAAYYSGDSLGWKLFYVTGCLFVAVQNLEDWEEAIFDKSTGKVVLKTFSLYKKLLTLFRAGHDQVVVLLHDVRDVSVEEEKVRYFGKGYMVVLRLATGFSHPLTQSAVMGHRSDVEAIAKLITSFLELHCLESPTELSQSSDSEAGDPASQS
UniProt P32321: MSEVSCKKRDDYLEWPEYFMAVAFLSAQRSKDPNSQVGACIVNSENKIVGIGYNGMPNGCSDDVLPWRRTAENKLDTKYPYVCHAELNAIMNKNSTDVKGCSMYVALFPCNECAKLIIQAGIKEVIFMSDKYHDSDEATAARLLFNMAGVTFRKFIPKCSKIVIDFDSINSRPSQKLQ
UniProt P26232: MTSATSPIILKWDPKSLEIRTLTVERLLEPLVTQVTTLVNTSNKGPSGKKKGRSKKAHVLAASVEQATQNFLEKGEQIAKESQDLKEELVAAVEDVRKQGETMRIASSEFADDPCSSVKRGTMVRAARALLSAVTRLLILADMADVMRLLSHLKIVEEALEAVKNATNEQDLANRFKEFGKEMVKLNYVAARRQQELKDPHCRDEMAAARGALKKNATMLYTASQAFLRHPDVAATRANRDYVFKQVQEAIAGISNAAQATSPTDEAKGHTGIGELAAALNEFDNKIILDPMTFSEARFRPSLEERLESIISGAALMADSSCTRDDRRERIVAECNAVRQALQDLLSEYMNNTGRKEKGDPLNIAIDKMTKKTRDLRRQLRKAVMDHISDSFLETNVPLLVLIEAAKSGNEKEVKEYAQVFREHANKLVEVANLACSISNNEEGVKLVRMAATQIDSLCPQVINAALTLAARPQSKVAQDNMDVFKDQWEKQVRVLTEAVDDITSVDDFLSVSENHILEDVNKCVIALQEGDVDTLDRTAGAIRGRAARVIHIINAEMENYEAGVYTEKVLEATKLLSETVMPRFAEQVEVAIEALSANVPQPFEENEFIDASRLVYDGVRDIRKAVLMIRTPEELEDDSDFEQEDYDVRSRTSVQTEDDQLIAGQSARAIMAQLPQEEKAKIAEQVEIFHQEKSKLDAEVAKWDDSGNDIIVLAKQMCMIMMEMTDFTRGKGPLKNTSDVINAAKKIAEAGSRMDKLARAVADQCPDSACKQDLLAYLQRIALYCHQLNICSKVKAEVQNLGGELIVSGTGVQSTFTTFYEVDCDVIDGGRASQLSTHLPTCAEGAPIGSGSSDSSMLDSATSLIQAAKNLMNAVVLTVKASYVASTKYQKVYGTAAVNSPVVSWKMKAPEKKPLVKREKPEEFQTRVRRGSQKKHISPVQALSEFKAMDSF
UniProt Q2VPK5: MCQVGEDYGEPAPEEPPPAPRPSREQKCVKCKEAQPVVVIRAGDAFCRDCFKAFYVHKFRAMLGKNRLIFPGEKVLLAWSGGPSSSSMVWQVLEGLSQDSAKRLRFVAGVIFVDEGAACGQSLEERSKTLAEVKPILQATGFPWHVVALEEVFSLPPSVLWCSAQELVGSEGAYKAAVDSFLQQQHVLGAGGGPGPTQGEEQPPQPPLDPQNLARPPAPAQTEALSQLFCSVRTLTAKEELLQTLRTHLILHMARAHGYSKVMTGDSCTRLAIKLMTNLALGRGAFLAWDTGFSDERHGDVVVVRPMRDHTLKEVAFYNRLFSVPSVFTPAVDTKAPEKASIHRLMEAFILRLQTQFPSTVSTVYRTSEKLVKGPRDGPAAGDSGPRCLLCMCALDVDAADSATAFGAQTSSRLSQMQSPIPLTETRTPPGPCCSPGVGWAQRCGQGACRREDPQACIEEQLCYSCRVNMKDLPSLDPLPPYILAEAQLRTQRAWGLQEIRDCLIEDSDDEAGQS
UniProt Q66K64, whole entry, looked up: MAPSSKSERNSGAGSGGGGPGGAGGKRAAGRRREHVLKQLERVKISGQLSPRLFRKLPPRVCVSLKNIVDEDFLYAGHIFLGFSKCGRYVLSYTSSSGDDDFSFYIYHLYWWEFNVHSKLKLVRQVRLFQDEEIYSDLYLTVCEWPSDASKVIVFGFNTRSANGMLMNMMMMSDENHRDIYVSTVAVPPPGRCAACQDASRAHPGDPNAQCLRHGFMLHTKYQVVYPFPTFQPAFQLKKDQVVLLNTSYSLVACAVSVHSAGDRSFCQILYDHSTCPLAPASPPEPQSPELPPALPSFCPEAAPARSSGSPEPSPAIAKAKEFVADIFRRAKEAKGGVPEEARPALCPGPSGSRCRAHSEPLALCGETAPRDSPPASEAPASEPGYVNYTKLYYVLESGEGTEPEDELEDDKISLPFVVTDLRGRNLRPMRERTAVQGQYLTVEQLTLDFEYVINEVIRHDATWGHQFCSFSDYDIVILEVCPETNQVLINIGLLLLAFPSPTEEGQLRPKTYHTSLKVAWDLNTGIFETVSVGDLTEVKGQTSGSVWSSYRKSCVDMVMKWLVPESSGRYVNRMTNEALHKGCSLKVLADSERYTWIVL

How the values were obtained:
Assay in all cases: log2 fold change, soluble protein after heating vs DMSO (PISA); higher = thermal stabilisation; K562 cells, 10 uM, 30 min; active = over 0.2 and 3.5 SD of the protein, either way, in both replicates (recomputed)
saracatinib = compound: CN1CCN(CCOc2cc(OC3CCOCC3)c3c(Nc4c(Cl)ccc5c4OCO5)ncnc3c2)CC1 [saracatinib]
Outline: (§1)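 K562 cells at 2×10^6 cells/mL were given 10 μM compound for 30 min. Aliquots then went through 3 min of heating across 48°C-58°C, were pooled, and were extracted in PBS with 0.5% NP-40 at 4°C, and the supernatant after 21,000xg for 90 min was quantified by TMTpro 16plex LC-MS/MS with channel sums equalised. Thermal stability relative to control samples, from duplicates, is given as log2 fold change.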

sotrastaurin = compound: CN1CCN(c2nc(C3=C(c4c[nH]c5ccccc45)C(=O)NC3=O)c3ccccc3n2)CC1 [sotrastaurin]
Outline: as §1

alvocidib = compound: CN1CC[C@H](c2c(O)cc(O)c3c(=O)cc(-c4ccccc4Cl)oc23)[C@H](O)C1 [alvocidib]
Outline: as §1

Tubastatin A = compound: CN1CCc2c(c3ccccc3n2Cc2ccc(C(=O)NO)cc2)C1 [Tubastatin A]
Outline: as §1

[1] = compound: CNC(=O)C1=CC=CC=C1NC2=NC(=NC=C2Cl)NC3=C(C=C(C=C3)N4CCOCC4)OC
Outline: as §1

defactinib = compound: CNC(=O)c1ccc(Nc2ncc(C(F)(F)F)c(NCc3nccnc3N(C)S(C)(=O)=O)n2)cc1 [defactinib]
Outline: as §1

rucaparib = compound: CNCc1ccc(-c2[nH]c3cc(F)cc4c3c2CCNC4=O)cc1 [rucaparib]
Outline: as §1

[2] = compound: CNc1nc(-c2ccc3c(N)n[nH]c3c2)cc(N2C[C@@H](C(=O)NC3CCCCC3)CC[C@H]2C)n1
Outline: as §1

encorafenib = compound: COC(=O)N[C@@H](C)CNc1nccc(-c2cn(C(C)C)nc2-c2cc(Cl)cc(NS(C)(=O)=O)c2F)n1 [encorafenib]
Outline: as §1

[3] = compound: COC(=O)[C@H](CCSC)NC(=O)C1=C(C=C(C=C1)NC[C@H](CS)N)C2=CC=CC=C2
Outline: as §1

[4] = compound: COC1=CC=C(C=C1)CN2C=CC3=C2C=C(C=C3)C(=O)NO
Outline: as §1

filanesib = compound: CON(C)C(=O)N1N=C(c2cc(F)ccc2F)S[C@@]1(CCCN)c1ccccc1 [filanesib]
Outline: as §1

zotarolimus = compound: CO[C@H]1C[C@@H]2CC[C@@H](C)[C@@](O)(O2)C(=O)C(=O)N2CCCC[C@H]2C(=O)O[C@H]([C@H](C)C[C@@H]2CC[C@H](n3cnnn3)[C@H](OC)C2)CC(=O)[C@H](C)/C=C(\C)[C@@H](O)[C@@H](OC)C(=O)[C@H](C)C[C@H](C)/C=C/C=C/C=C/1C [zotarolimus]
Outline: as §1

idasanutlin = compound: COc1cc(C(=O)O)ccc1NC(=O)[C@@H]1N[C@@H](CC(C)(C)C)[C@](C#N)(c2ccc(Cl)cc2F)[C@H]1c1cccc(Cl)c1F [idasanutlin]
Outline: as §1

alisertib = compound: COc1cc(Nc2ncc3c(n2)-c2ccc(Cl)cc2C(c2c(F)cccc2OC)=NC3)ccc1C(=O)O [alisertib]
Outline: as §1

[5] = compound: COc1cc2nc(-c3cc(F)ccc3O)nc(N[C@@H]3CNC[C@H]3C(C)(C)O)c2cc1OC
Outline: as §1

gefitinib = compound: COc1cc2ncnc(Nc3ccc(F)c(Cl)c3)c2cc1OCCCN1CCOCC1 [gefitinib]
Outline: as §1

[6] = compound: COc1cccc2cc(-c3nc([C@H]4CC[C@H](C(=O)O)CC4)n4ncnc(N)c34)[nH]c12
Outline: as §1

lapatinib = compound: CS(=O)(=O)CCNCc1ccc(-c2ccc3ncnc(Nc4ccc(OCc5cccc(F)c5)c(Cl)c4)c3c2)o1 [lapatinib]
Outline: as §1

pictilisib = compound: CS(=O)(=O)N1CCN(Cc2cc3nc(-c4cccc5[nH]ncc45)nc(N4CCOCC4)c3s2)CC1 [pictilisib]
Outline: as §1

Measured: log2 fold change

DAP3 (UniProt P51398)
inactive: saracatinib -0.034 | sotrastaurin -0.103 | alvocidib 0 | Tubastatin A 0.021 | [1] -0.015 | defactinib 0.04 | rucaparib 0.094 | [2] 0.108 | encorafenib 0.018 | [3] -0.034 | [4] 0 | filanesib 0.049 | zotarolimus 0.076 | idasanutlin -0.141 | alisertib -0.112 | [5] -0.105 | gefitinib -0.002 | [6] 0 | lapatinib 0.084 | pictilisib -0.138

CUL4B (UniProt K4DI93)
inactive: saracatinib 0.051 | sotrastaurin 0.006 | alvocidib -0.082 | Tubastatin A -0.002 | [1] 0.001 | defactinib -0.005 | rucaparib -0.059 | [2] -0.005 | encorafenib 0.002 | [3] -0.009 | [4] -0.038 | filanesib -0.044 | zotarolimus 0.043 | idasanutlin -0.085 | alisertib -0.026 | [5] 0 | gefitinib 0.018 | [6] 0.012 | lapatinib -0.027 | pictilisib 0.036

CSPP1 (UniProt Q1MSJ5)
inactive: saracatinib 0 | sotrastaurin 0.015 | alvocidib -0.036 | Tubastatin A 0.006 | [1] -0.029 | defactinib 0.01 | rucaparib -0.073 | [2] -0.165 | encorafenib 0.011 | [3] -0.042 | [4] -0.028 | filanesib -0.004 | zotarolimus -0.067 | idasanutlin -0.061 | alisertib 0.095 | [5] 0.05 | gefitinib -0.032 | [6] 0.057 | lapatinib -0.017 | pictilisib 0.019

CTBP1 (UniProt Q13363)
inactive: saracatinib 0.02 | sotrastaurin 0.032 | alvocidib 0.031 | Tubastatin A 0.013 | [1] -0.03 | defactinib -0.021 | rucaparib -0.056 | [2] 0.029 | encorafenib 0.012 | [3] 0.034 | [4] -0.013 | filanesib -0.046 | zotarolimus -0.005 | idasanutlin -0.037 | alisertib -0.087 | [5] 0.041 | gefitinib 0.015 | [6] 0.06 | lapatinib -0.011 | pictilisib 0.069

CT45A10 (UniProt P0DMU9)
inactive: saracatinib -0.028 | sotrastaurin 0 | alvocidib 0.157 | Tubastatin A 0.051 | [1] -0.099 | defactinib 0.256 | rucaparib 0.147 | [2] 0.19 | encorafenib 0.075 | [3] 0.048 | [4] -0.112 | filanesib 0.227 | zotarolimus -0.091 | idasanutlin 0.2 | alisertib 0 | [5] -0.227 | gefitinib -0.038 | [6] 0.025 | lapatinib -0.313 | pictilisib -0.064

CWC15 (UniProt Q9P013)
inactive: saracatinib 0.043 | sotrastaurin 0.094 | alvocidib 0.151 | Tubastatin A -0.044 | [1] -0.053 | defactinib 0.043 | rucaparib 0.001 | [2] -0.077 | encorafenib -0.092 | [3] 0.06 | [4] -0.009 | filanesib 0.029 | zotarolimus -0.075 | idasanutlin -0.02 | alisertib -0.068 | [5] 0.065 | gefitinib -0.01 | [6] 0.065 | lapatinib -0.072 | pictilisib -0.021

DARS2 (UniProt Q6PI48)
inactive: saracatinib 0.04 | sotrastaurin 0.021 | alvocidib 0.059 | Tubastatin A -0.022 | [1] 0.096 | defactinib 0.005 | rucaparib -0.017 | [2] -0.067 | encorafenib 0.018 | [3] -0.013 | [4] 0.031 | filanesib -0.023 | zotarolimus -0.022 | idasanutlin -0.021 | alisertib -0.068 | [5] -0.082 | gefitinib 0.004 | [6] 0.023 | lapatinib 0.031 | pictilisib -0.015

DCAF7 (UniProt P61962)
inactive: saracatinib -0.02 | sotrastaurin 0.034 | alvocidib 0.11 | Tubastatin A 0.059 | [1] -0.105 | defactinib -0.039 | rucaparib -0.002 | [2] 0.019 | encorafenib -0.009 | [3] 0.019 | [4] -0.042 | filanesib -0.023 | zotarolimus -0.028 | idasanutlin 0.102 | alisertib -0.056 | [5] 0.038 | gefitinib 0.025 | [6] 0.02 | lapatinib 0.002 | pictilisib 0.03

CTTN (UniProt Q14247)
inactive: saracatinib 0.009 | sotrastaurin 0.015 | alvocidib -0.002 | Tubastatin A -0.021 | [1] 0.011 | defactinib -0.001 | rucaparib -0.034 | [2] -0.09 | encorafenib -0.02 | [3] 0.023 | [4] -0.014 | filanesib -0.006 | zotarolimus 0.007 | idasanutlin -0.013 | alisertib -0.036 | [5] 0.076 | gefitinib -0.008 | [6] 0.064 | lapatinib -0.035 | pictilisib 0.026

CWF19L1 (UniProt Q69YN2)
inactive: saracatinib 0.033 | sotrastaurin -0.01 | alvocidib 0.103 | Tubastatin A -0.033 | [1] 0.051 | defactinib -0.004 | rucaparib 0.005 | [2] 0.007 | encorafenib 0.022 | [3] -0.003 | [4] -0.031 | filanesib 0.114 | zotarolimus 0.017 | idasanutlin -0.044 | alisertib -0.077 | [5] 0.054 | gefitinib -0.001 | [6] -0.042 | lapatinib -0.005 | pictilisib -0.026

DCTN2 isoform 2 (UniProt Q13561)
inactive: saracatinib 0.008 | sotrastaurin -0.066 | alvocidib -0.032 | Tubastatin A 0.005 | [1] 0.056 | defactinib -0.076 | rucaparib 0.016 | [2] 0.022 | encorafenib 0.034 | [3] -0.034 | [4] 0.025 | filanesib -0.022 | zotarolimus 0.087 | idasanutlin -0.025 | alisertib -0.028 | [5] 0.043 | gefitinib 0.012 | [6] -0.046 | lapatinib 0.016 | pictilisib 0.017

CYBC1 (UniProt Q9BQA9)
inactive: saracatinib 0.091 | sotrastaurin 0.062 | alvocidib 0.024 | Tubastatin A -0.026 | [1] -0.035 | defactinib -0.015 | rucaparib -0.128 | [2] -0.02 | encorafenib -0.002 | [3] 0.029 | [4] -0.066 | filanesib -0.097 | zotarolimus -0.032 | idasanutlin -0.04 | alisertib -0.062 | [5] -0.046 | gefitinib 0.014 | [6] 0.134 | lapatinib -0.087 | pictilisib 0.045

Three successive records out of the list so far, quoted:
DAP3 (UniProt P51398)
inactive: saracatinib -0.034 | sotrastaurin -0.103 | alvocidib 0 | Tubastatin A 0.021 | [1] -0.015 | defactinib 0.04 | rucaparib 0.094 | [2] 0.108 | encorafenib 0.018 | [3] -0.034 | [4] 0 | filanesib 0.049 | zotarolimus 0.076 | idasanutlin -0.141 | alisertib -0.112 | [5] -0.105 | gefitinib -0.002 | [6] 0 | lapatinib 0.084 | pictilisib -0.138

CUL4B (UniProt K4DI93)
inactive: saracatinib 0.051 | sotrastaurin 0.006 | alvocidib -0.082 | Tubastatin A -0.002 | [1] 0.001 | defactinib -0.005 | rucaparib -0.059 | [2] -0.005 | encorafenib 0.002 | [3] -0.009 | [4] -0.038 | filanesib -0.044 | zotarolimus 0.043 | idasanutlin -0.085 | alisertib -0.026 | [5] 0 | gefitinib 0.018 | [6] 0.012 | lapatinib -0.027 | pictilisib 0.036

CSPP1 (UniProt Q1MSJ5)
inactive: saracatinib 0 | sotrastaurin 0.015 | alvocidib -0.036 | Tubastatin A 0.006 | [1] -0.029 | defactinib 0.01 | rucaparib -0.073 | [2] -0.165 | encorafenib 0.011 | [3] -0.042 | [4] -0.028 | filanesib -0.004 | zotarolimus -0.067 | idasanutlin -0.061 | alisertib 0.095 | [5] 0.05 | gefitinib -0.032 | [6] 0.057 | lapatinib -0.017 | pictilisib 0.019

The results go on:

DCTD isoform 2 (UniProt P32321)
inactive: saracatinib 0.071 | sotrastaurin 0.075 | alvocidib 0.009 | Tubastatin A 0 | [1] -0.04 | defactinib -0.065 | rucaparib 0.008 | [2] -0.036 | encorafenib -0.004 | [3] -0.006 | [4] 0.004 | filanesib -0.005 | zotarolimus 0.011 | idasanutlin -0.063 | alisertib 0 | [5] 0.011 | gefitinib -0.002 | [6] 0.051 | lapatinib -0.009 | pictilisib -0.031

CTNNA2 (UniProt P26232)
inactive: saracatinib 0.007 | sotrastaurin 0.001 | alvocidib -0.052 | Tubastatin A 0.142 | [1] -0.039 | defactinib -0.032 | rucaparib -0.053 | [2] -0.072 | encorafenib -0.02 | [3] -0.015 | [4] 0.125 | filanesib -0.023 | zotarolimus -0.011 | idasanutlin -0.095 | alisertib -0.019 | [5] -0.005 | gefitinib 0.014 | [6] -0.024 | lapatinib 0.013 | pictilisib 0.023

CTU2 (UniProt Q2VPK5)
inactive: saracatinib 0.019 | sotrastaurin 0.062 | alvocidib -0.047 | Tubastatin A -0.038 | [1] 0.003 | defactinib -0.07 | rucaparib -0.031 | [2] 0.015 | encorafenib -0.018 | [3] 0.064 | [4] -0.007 | filanesib -0.115 | zotarolimus 0.014 | idasanutlin -0.102 | alisertib -0.092 | [5] -0.035 | gefitinib -0.009 | [6] 0.044 | lapatinib -0.029 | pictilisib 0.019

DCAF15 (UniProt Q66K64)
inactive: saracatinib 0.034 | sotrastaurin 0.098 | alvocidib -0.086 | Tubastatin A 0.057 | [1] 0.02 | defactinib -0.05 | rucaparib -0.202 | [2] -0.25 | encorafenib -0.03 | [3] -0.108 | [4] -0.01 | filanesib -0.014 | zotarolimus 0.053 | idasanutlin -0.027 | alisertib -0.07 | [5] 0.094 | gefitinib 0.013 | [6] 0.169 | lapatinib -0.005
